Results deposited as PubChem BioAssay AID1259254 (NCATS, 2017).
Purpose: 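Genome-wide screen for genes that prevent DNA re-replication in cancer cells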 (primary screen). Cell system: human HCT116 colorectal cancer cells. Knock-down reagent: single siRNA against human genes. Duration: 3 days. Measurement: 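Imaged Hoechst DNA stain sorts each cell into a cycle phase by DNA amount; per plate, G2 fraction set to 0% for non-targeting and 100% for GMNN siRNA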. Scale: G2 robust z-score and G2 cells, % of GMNN control: higher = more G2 cells, more excess DNA replication; raw share of cells in G2: higher = larger share of cells with G2 DNA content. Active means: 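An siRNA counts as active if its G2 robust z-score lies at least 5 MADs above the screen median; here such calls match roughly 38% of GMNN control or more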.
In all, the deposit lists about 59,000 reagents; below is a part drawn at random. In the full data, about 1,550 (2.6%) got an active call. 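G2 share is only a proxy for re-replication; each gene was hit by three separate siRNAs, and active genes were retested.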 Raw values vary from plate to plate and are shown uncorrected. The numbers tell different reagents against one gene apart. The record does not give: the amount of reagent.

target gene	reagent no.	G2 robust z-score	G2 cells, % of GMNN control	raw share of cells in G2 (%)	Call
TCF19 (transcription factor 19)	1	0.745	8.21	8.77	inactive
TCF19 (transcription factor 19)	2	-0.293	0.908	4.25	inactive
TCF19 (transcription factor 19)	3	-1.05	-4.42	1.79	inactive
RPS24 (ribosomal protein S24)	1	2.99	24	15.2	inactive
RPS24 (ribosomal protein S24)	2	3.34	26.5	14.7	inactive
RPS24 (ribosomal protein S24)	3	2.56	21	10.9	inactive
MYOM2 (myomesin 2)	1	-0.617	-1.38	4.52	inactive
MYOM2 (myomesin 2)	2	0.0312	3.19	5.16	inactive
MYOM2 (myomesin 2)	3	-0.482	-0.422	3.2	inactive
HRH3 (histamine receptor H3)	1	-0.408	0.0942	5.88	inactive
HRH3 (histamine receptor H3)	2	3.4	26.9	13.9	inactive
HRH3 (histamine receptor H3)	3	-1.08	-4.62	1.85	inactive
CCDC185 (coiled-coil domain containing 185)	1	0.617	7.31	6.22	inactive
CCDC185 (coiled-coil domain containing 185)	2	0.411	5.86	4.92	inactive
CCDC185 (coiled-coil domain containing 185)	3	-0.692	-1.9	2.16	inactive

Reformatted: 2 of the entries above
| target gene | reagent no. | G2 robust z-score | G2 cells, % of GMNN control | raw share of cells in G2 (%) | Call |
| --- | --- | --- | --- | --- | --- |
| HRH3 (histamine receptor H3) | 1 | -0.408 | 0.0942 | 5.88 | inactive |
| HRH3 (histamine receptor H3) | 2 | 3.4 | 26.9 | 13.9 | inactive |

Next entries follow:
target gene	reagent no.	G2 robust z-score	G2 cells, % of GMNN control	raw share of cells in G2 (%)	Call
ZNF525 (zinc finger protein 525)	1	-0.0221	2.81	4.06	inactive
ZNF525 (zinc finger protein 525)	2	-0.661	-1.69	2.58	inactive
ZNF525 (zinc finger protein 525)	3	0.777	8.44	6.48	inactive
ELK3 (ETS transcription factor ELK3)	1	-0.824	-2.83	4.21	inactive
ELK3 (ETS transcription factor ELK3)	2	-0.836	-2.91	4.15	inactive
ELK3 (ETS transcription factor ELK3)	3	2.63	21.5	11.3	inactive
TTC9 (tetratricopeptide repeat domain 9)	1	-0.0696	2.48	7.36	inactive
TTC9 (tetratricopeptide repeat domain 9)	2	0.689	7.81	6.54	inactive
TTC9 (tetratricopeptide repeat domain 9)	3	1.23	11.6	8.05	inactive
LINC01829 (long independently transcribed non-coding RNA 1829)	1	0.256	4.77	4.53	inactive
LINC01829 (long independently transcribed non-coding RNA 1829)	2	0.702	7.9	6.65	inactive
LINC01829 (long independently transcribed non-coding RNA 1829)	3	-0.503	-0.574	3.07	inactive
NKPD1 (NTPase KAP family P-loop domain containing 1)	1	0.268	4.85	4.74	inactive
NKPD1 (NTPase KAP family P-loop domain containing 1)	2	1.22	11.5	7.85	inactive
NKPD1 (NTPase KAP family P-loop domain containing 1)	3	1.09	10.6	7.15	inactive
